## Primary screen of a compound library

By UniProt entry, the sequences of proteins in these tests, tags left out. Residues count along the entry.
UniProt A4I591, 1-473: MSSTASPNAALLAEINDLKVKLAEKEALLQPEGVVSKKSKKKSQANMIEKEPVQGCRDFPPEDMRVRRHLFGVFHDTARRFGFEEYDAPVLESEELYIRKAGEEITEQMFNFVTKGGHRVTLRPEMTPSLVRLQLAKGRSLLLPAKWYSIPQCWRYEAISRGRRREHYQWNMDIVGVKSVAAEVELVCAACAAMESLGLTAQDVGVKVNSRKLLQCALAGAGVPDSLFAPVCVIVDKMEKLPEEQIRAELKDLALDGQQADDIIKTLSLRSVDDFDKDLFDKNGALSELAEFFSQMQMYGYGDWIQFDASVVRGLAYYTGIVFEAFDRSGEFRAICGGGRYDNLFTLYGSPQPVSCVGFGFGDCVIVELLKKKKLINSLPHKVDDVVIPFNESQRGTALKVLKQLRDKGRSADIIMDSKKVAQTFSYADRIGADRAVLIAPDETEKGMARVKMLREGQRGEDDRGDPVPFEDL
UniProt P9WFT3, whole entry: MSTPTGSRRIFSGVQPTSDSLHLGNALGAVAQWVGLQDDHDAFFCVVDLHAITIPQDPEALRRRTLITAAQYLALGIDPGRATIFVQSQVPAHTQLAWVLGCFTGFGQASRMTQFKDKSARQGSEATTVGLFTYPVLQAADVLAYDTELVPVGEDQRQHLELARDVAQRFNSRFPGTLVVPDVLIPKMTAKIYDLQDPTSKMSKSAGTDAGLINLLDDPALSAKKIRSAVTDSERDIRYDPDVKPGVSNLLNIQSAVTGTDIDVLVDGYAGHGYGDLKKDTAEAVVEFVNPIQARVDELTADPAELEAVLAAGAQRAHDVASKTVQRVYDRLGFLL
UniProt P9WNZ1, whole entry: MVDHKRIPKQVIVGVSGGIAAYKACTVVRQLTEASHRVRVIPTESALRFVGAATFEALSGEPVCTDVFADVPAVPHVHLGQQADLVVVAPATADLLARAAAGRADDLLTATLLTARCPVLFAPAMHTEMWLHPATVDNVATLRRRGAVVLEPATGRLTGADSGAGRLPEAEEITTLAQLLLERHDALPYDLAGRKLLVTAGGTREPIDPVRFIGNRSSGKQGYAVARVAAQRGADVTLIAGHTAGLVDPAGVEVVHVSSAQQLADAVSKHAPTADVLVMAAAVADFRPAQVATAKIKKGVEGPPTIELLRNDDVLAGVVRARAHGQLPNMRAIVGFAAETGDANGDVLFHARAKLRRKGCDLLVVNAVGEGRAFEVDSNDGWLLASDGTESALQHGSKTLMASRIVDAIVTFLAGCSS

From ChEMBL document CHEMBL3988442, “University of Dundee, Small-Polar-MMV Screening Library” (2021).

Results are given as percent effect. How 0% and 100% were set is not recorded. Most values in the screen are low, and negative values occur. This is an unselected part of the compounds tested. A dash means the value is not listed here; it may have been measured.

LiHisRS: 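Enzyme assay of histidyl-tRNA synthetase; the read-out is not stated. Target: Histidine-tRNA ligase, Leishmania infantum (UniProt A4I591). Compounds at 30 µM. Direction is inferred from retests: higher values go with stronger inhibition. The assay is labelled LdHisRS but filed under L. infantum. Of about 69,000 compounds tested this way, about 410 (0.6%) reached 50% or more in at least one test.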
MtTrpRS: 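Tryptophan-tRNA ligase, Mycobacterium tuberculosis (UniProt P9WFT3). Enzyme assay of tryptophanyl-tRNA synthetase; the read-out is not stated. Tested at 10 µM. Higher most likely means stronger inhibition; the record gives no direction and few retests gave an IC50. Of about 65,000 compounds tested this way, about 64 (0.098%) reached 50% or more in at least one test.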
Toxoplasma: 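Assay of Toxoplasma gondii numbers, read through their beta-galactosidase reporter with a colour substrate. Concentration: 10 µM. The record gives no direction; the compounds picked for IC50 retests had high values, so higher reads as fewer parasites. About 67,000 compounds were tested under these conditions; 0.38% (about 260) showed 50% or more at least once.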
CoaBC: 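Enzyme assay of CoaBC with a phosphate dye (Biomol Green) read at 650 nm. Target: Coenzyme A biosynthesis protein CoaBC, Mycobacterium tuberculosis (UniProt P9WNZ1). Concentration: 30 µM. Direction is inferred from only a few compounds that gave an IC50; most scored high, so higher reads as stronger inhibition. Most strong results did not repeat in a second test. About 67,000 compounds were tested under these conditions; 0.06% (about 40) showed 50% or more at least once.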

| SMILES | LiHisRS | MtTrpRS | Toxoplasma | CoaBC |
|---|---|---|---|---|
| `[H][C@@]12C[C@H](C(=O)N3CCCC3)[C@@]([H])(CN(C(=O)Nc3ccc(CC)cc3)C1)O2` | - | - | -6.964% | - |
| `Cc1n[nH]c(C)c1CCNC(=O)Nc1ccc(S(C)(=O)=O)cc1` | 13.33% | 3.268% | -29.48% | 2.19% |
| `[H][C@]12CCN(S(=O)(=O)Cc3ccccc3)[C@@]1([H])CC[C@H](COC)O2` | - | - | 6.691% | - |
| `CN1CCC(Oc2ccc(-n3ccnc3-c3nccn3C)cc2)CC1` | 12.59% | -7.048% | -18.66% | 2.716% |
| `O=C1CC2(CCCC2)CC(=O)N1CCn1cnnc1` | 1.667% | -0.2138% | 8.799% | 9.685% |
| `[H][C@@]12CS(=O)(=O)C[C@]1([H])N(C(=O)NCC)CCN2Cc1ccc(CCC)o1` | - | - | 3.474% | - |
| `CC(=O)Nc1ccsc1C(=O)N1CC[C@@H]2CC[C@H](C1)N2C` | 26.76% | -2.926% | - | - |
| `CN(C)CCN1CCCC12CCCN(C(=O)c1cccnc1)C2.O=C(O)C(F)(F)F.O=C(O)C(F)(F)F` (centres unmarked) | - | - | -16.42% | - |
| `COCc1nc(C(=O)NS(=O)(=O)c2ccc(F)c(F)c2)cs1` | 2% | -1.314% | -10.51% | 1.238% |
| `[H][C@@]12CCN(C(=O)COC3CCCC3)C[C@]1(COCC1CC1)CCO2` | - | - | -2.5% | - |
| `Cn1cc(CN2C[C@@H]3CCCO[C@@H]3[C@H](N3CCCC3=O)C2)cn1` | 12.28% | -1.621% | - | 3.594% |
| `CC(C)(C)n1cc(C(=O)N2CCN(Cc3cccnc3)CC2)cn1` | 14.29% | -3.955% | 3.823% | 6.464% |
| `CS(=O)(=O)Cc1ccc(C(=O)NC2CCc3nccn3C2)o1` (centres unmarked) | 7.143% | -11.36% | 0.1015% | 1.901% |
| `NC(=O)c1ccc(CNC2CC2)cc1` | 15.49% | 10.6% | - | - |
| `Cc1[nH]c2c(C)ccc(C)c2c1CC(=O)NCC(O)c1cccnc1` (centres unmarked) | 14.17% | 0.2064% | -0.2283% | - |
| `[H][C@@]12C[C@@H](C(=O)Nc3cnccn3)CN(c3ncc(F)cn3)[C@]1([H])CCO2` | - | - | 0.7012% | - |
| `COc1ccc(CNC(C)Cn2cccn2)c(OC)c1OC` (centres unmarked) | 13.91% | 0.09737% | - | -3.484% |
| `O=C(c1ccc(F)c(F)c1)N1CCCC(Nc2ccc(F)cc2)C1` (centres unmarked) | 21.15% | 3.328% | 4.847% | -10.87% |
| `Cc1nn(C)c(Oc2cccc(F)c2)c1NC(=O)C1CCOCC1` | 17.95% | 1.024% | -4.141% | -0.2012% |
| `Cc1nccn1-c1cc(CNC(=O)CCNC(=O)OC(C)(C)C)ccn1` | 12.9% | -1.644% | 8.414% | -0.978% |
| `Cn1c(N)c2c(=O)n(C)c(-c3ccccc3)cc2c(C#N)c1=O` | 12.64% | 2.855% | 2.787% | 1.566% |
| `[H][C@]12CN(Cc3nc(C)c[nH]3)CC[C@@]1(O)CCN(C(=O)C1CCCC1)C2` | - | - | -2.378% | - |
| `Cc1cccc(NS(=O)(=O)c2cnn(C)c2)c1C#N` | 4.225% | 3.44% | -2.681% | 13.27% |
| `O=C(CS(=O)(=O)Cc1csc(-c2ccc(F)cc2)n1)NCC1CC1` | 48.19% | -5.647% | -4.421% | 1.942% |
| `Cc1nnc2n1CCN(Cc1csc(-c3ccc(F)cc3)n1)C2` | 21.54% | -2.818% | 8.831% | 15.18% |
| `O=c1[nH]nc2c(S(=O)(=O)N3CCOCC3)cccn12` | 26.09% | 1.834% | -10.23% | 1.695% |
| `Cc1cc(C)cc(C2(C(=O)N3CCCC(n4cncn4)C3)CC2)c1` (centres unmarked) | 18.46% | -5.151% | 3.446% | 10.46% |
| `Cc1ccc(NC(=O)CN2CCOCC2)c(F)c1` | 3.297% | -1.748% | 23.63% | -1.687% |
| `Cc1ccc(C(=O)NC(CN2CCCC2)c2ccccc2)c(=O)[nH]1` (centres unmarked) | 26.76% | -2.948% | 11.28% | 6.407% |
| `Cc1ncsc1C(=O)NCCn1nc(C2CCNC2)c2cccnc21` (centres unmarked) | 2.19% | 0% | - | 0.5181% |
| `CCOC1(C)C(=O)c2ccccc2N1Nc1ccccc1C(=O)CC` (centres unmarked) | 7.5% | 1.356% | -24.8% | -0.3797% |
| `CCN(c1ccc(C(=O)NCCCN2CCCC2)cc1)S(=O)(=O)CC` | 8.571% | -1.589% | -1.257% | 4.453% |
| `COc1ccc(F)c(F)c1CN1CC(=O)N(c2ccccc2C)CC1C` (centres unmarked) | 53.01% | -2.98% | -0.5358% | 1.456% |
| `CC1(C)Cc2nc(C(C)(C)C)ncc2C(NC(=O)Cc2nnn[nH]2)C1` (centres unmarked) | 18.07% | 4.285% | -6.363% | -2.384% |
| `c1c(CN2CCCC2)nc2n1CCN(CC1CC1)C2` | 22.37% | -4.673% | - | -7.944% |
| `COC(=O)c1ccc(F)c(Cn2nc(C)cc2C)c1` | 17.74% | 0.9183% | 2.375% | 2.539% |
| `Cc1cc(-n2cnnn2)n2ncnc2n1` | -37.11% | - | 21.58% | -3.313% |
| `Cc1cccc(C(=O)N2C[C@@H]3CCN(C(C)C)C[C@@H]3C2)c1` | 3.883% | -0.5659% | - | -2.036% |
| `O=C(NC1CCCC1)O[C@H]1COCCN(c2nc3ccccc3s2)C1` | 16.67% | 2.786% | -0.592% | -5.643% |
| `CCC(O)CN1CCN(C(=O)c2sccc2C2CC2)CC1` (centres unmarked) | 13.68% | -2.442% | 7.98% | -8.043% |
| `CN(CC(=O)N1CC(C)(C)[C@@](C)(O)C1)Cc1ccncc1` | 2.564% | -4.919% | -2.835% | 2.8% |
| `Cn1nccc1CN1CCOC(c2cccc(-c3cncnc3)n2)C1` (centres unmarked) | 0% | 22.82% | - | -0.9864% |
| `CN(C)C(=O)CN1CCCC1c1nc(N)ncc1-c1ccc(F)cc1` (centres unmarked) | 18% | - | 1.964% | 9.294% |
| `Cc1nnc(CN(Cc2cccc3c2OCO3)CC2CCCO2)n1C` (centres unmarked) | 9.326% | -3.374% | -1.147% | 6.497% |
| `CN1CCOC(CNCC(=O)NCCc2ccc3c(c2)OCCO3)C1` (centres unmarked) | 5.181% | 5.01% | -1.262% | -0.3822% |
| `CN(C)c1nccnc1C1CCN(C2CCCCC2O)CC1` (centres unmarked) | 11.35% | -3.039% | 8.239% | 3.558% |
| `COc1cc(C)cc(C(C(=O)O)N(C)CCN2CCCC2)c1OC` (centres unmarked) | 13.13% | -5.273% | -12.14% | -5.797% |
| `CNc1nc(C)c(C(=O)N2CCCCC2CCc2ccc(O)cc2)s1` (centres unmarked) | 9.091% | -1.385% | -19.74% | -2.564% |
| `O=C(O)C(F)(F)F.O=C(O)C(F)(F)F.[H][C@]12CCC[C@@]1(COc1cccnc1)CN(c1ccc(C)nn1)C2` | - | - | 2.044% | - |
| `[H][C@@]12C[C@@H](OCc3cccnc3)CN1CCN(C(=O)c1ccsc1)C2` | - | - | 8.042% | - |
| `Cc1ncsc1C(=O)N1CCCC1c1c(C)nn(C)c1Cl` (centres unmarked) | 0% | 1.183% | 6.162% | 11.06% |
| `Cc1noc(C)c1-c1cncc(C2CCCN2Cc2cc[nH]n2)n1` (centres unmarked) | 8% | - | -42.04% | 6.072% |
| `CO[C@@H]1CCC[C@@H](N(C)C(=O)c2cn3cc(C)ccc3n2)[C@H]1O` | 8.633% | -3.646% | 5.344% | 2.153% |
| `COc1cccc(Nc2nc(N3CCCC3)nc3c2CNCC3)c1` | 8.451% | -4.823% | - | 0.4751% |
| `CC(C)c1nc(-c2cc(C(=O)NCCCO)c3ccccn23)cs1` | 23.08% | 0.6347% | -10.6% | 11.67% |
| `O=C(C1CCCC1)N1CCCC(c2cccc(-n3ccnc3)n2)C1` (centres unmarked) | 18.84% | - | 9.796% | -1.942% |
| `CC(C)c1cc(C(=O)N2CCCC3(CCNC3)C2)no1` (centres unmarked) | 0% | -1.039% | 18.69% | 1.908% |
| `Cc1ccc2nc(CN(Cc3ccc(C)o3)C(C)C)cc(=O)n2c1` | 19.18% | 0.7802% | -4.89% | 2.273% |
| `CC(NC(=O)NCc1cccc(N2CCCC2=O)c1)c1ccccc1` (centres unmarked) | 0% | 1.329% | -4.312% | 6.667% |

For reference, 7 entries once more:

* CCC(O)CN1CCN(C(=O)c2sccc2C2CC2)CC1 (centres unmarked) : LiHisRS: 13.68%; MtTrpRS: -2.442%; Toxoplasma: 7.98%; CoaBC: -8.043%
* Cn1cc(CN2C[C@@H]3CCCO[C@@H]3[C@H](N3CCCC3=O)C2)cn1 : LiHisRS: 12.28%; MtTrpRS: -1.621%; CoaBC: 3.594%
* Cc1ccc2nc(CN(Cc3ccc(C)o3)C(C)C)cc(=O)n2c1 : LiHisRS: 19.18%; MtTrpRS: 0.7802%; Toxoplasma: -4.89%; CoaBC: 2.273%
* CN1CCOC(CNCC(=O)NCCc2ccc3c(c2)OCCO3)C1 (centres unmarked) : LiHisRS: 5.181%; MtTrpRS: 5.01%; Toxoplasma: -1.262%; CoaBC: -0.3822%
* CC(=O)Nc1ccsc1C(=O)N1CC[C@@H]2CC[C@H](C1)N2C : LiHisRS: 26.76%; MtTrpRS: -2.926%
* Cn1c(N)c2c(=O)n(C)c(-c3ccccc3)cc2c(C#N)c1=O : LiHisRS: 12.64%; MtTrpRS: 2.855%; Toxoplasma: 2.787%; CoaBC: 1.566%
* Cc1[nH]c2c(C)ccc(C)c2c1CC(=O)NCC(O)c1cccnc1 (centres unmarked) : LiHisRS: 14.17%; MtTrpRS: 0.2064%; Toxoplasma: -0.2283%